This note sets out measurements from paper PMC12052773.

Sequences of proteins named here, by UniProt entry; tags and fusion partners are left off.
UniProt P53396: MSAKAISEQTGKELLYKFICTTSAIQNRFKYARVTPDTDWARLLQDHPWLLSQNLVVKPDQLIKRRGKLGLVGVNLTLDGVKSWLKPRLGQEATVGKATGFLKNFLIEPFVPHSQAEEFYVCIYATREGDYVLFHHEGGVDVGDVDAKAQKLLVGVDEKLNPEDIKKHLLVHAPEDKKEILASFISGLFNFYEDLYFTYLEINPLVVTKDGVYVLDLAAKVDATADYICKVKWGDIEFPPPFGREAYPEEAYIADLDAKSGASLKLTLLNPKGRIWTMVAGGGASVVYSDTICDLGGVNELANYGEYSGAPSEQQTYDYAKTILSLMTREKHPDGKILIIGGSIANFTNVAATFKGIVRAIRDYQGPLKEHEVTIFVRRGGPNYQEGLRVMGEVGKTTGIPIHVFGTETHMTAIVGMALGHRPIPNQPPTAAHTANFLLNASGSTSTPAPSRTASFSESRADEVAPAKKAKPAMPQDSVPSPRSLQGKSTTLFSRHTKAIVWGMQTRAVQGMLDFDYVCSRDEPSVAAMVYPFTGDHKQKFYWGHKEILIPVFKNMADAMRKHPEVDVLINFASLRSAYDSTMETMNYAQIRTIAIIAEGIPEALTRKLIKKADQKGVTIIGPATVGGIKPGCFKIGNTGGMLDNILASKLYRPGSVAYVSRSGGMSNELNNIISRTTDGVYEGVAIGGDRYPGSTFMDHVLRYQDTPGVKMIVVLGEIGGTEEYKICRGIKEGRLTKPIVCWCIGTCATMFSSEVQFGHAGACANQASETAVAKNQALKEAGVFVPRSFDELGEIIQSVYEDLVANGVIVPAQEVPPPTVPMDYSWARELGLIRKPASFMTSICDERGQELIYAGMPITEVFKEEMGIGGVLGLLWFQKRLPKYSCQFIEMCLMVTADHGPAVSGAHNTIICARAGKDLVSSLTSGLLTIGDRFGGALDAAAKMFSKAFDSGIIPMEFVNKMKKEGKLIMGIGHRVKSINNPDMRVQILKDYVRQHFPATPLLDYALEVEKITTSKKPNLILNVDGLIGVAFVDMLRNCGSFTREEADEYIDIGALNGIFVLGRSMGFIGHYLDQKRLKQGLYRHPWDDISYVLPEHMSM

No constants are given. Whether binding was seen depends on the method and setting. Binding seen in cells or lysates may run through a third protein. Some entries that bind do so weakly or less than the wild type. For some assays here: Tags and fused reporters may be left off the sequences shown.

The target of assay [1] is T1, RNF180 (Ring finger protein 180), 3xFLAG-tagged, overexpressed in KYSE-150 cells (human) (UniProt Q86T96).
T1 sequence: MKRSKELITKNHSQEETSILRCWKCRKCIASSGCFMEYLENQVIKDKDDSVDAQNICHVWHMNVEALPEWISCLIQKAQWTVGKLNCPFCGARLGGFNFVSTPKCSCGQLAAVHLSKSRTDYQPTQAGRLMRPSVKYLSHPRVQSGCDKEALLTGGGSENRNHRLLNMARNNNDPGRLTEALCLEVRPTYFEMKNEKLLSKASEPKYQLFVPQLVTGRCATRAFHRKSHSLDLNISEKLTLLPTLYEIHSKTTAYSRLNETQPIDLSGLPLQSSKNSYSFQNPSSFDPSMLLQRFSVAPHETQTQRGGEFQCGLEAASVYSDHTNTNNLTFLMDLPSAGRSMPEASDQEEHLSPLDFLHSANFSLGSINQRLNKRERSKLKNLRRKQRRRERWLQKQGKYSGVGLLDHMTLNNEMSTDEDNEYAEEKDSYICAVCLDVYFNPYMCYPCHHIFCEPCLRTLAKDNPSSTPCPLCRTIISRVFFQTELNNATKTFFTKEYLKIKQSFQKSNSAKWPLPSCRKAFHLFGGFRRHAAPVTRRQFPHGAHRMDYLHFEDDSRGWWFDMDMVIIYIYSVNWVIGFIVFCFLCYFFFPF
Put plainly: co-IP; cell lysates in RIPA (>1000 ug) incubated with antibody against RNF180, ACC1 or ACLY, then Protein G agarose beads, washed four times with RIPA, Western blot; KYSE-150 cells and RNF180 transfectants, with or without MG132 (5 uM, 9 h). (Immunoblotting shows a protein as a band on a membrane.)

Assay [2] has as its target T2, RNF180 (Ring finger protein 180), endogenous in KYSE-150 cells (human (endogenous in KYSE-150)) (UniProt Q86T96).
T2 sequence: T1 sequence
The description is as above.

Regarding “ACLY (from UniProt P53396 1-1101) (enzyme)”, the binding entry in assay [1] and in assay [2] was “binds” in each case.
